Our source for the survivor count and T/C values is PubChem BioAssay AID342 (DTP/NCI, 2004).

The subject of this assay is Swiss mice, Sarcoma 180 sc, mean tumor weight T/C. Briefly: NCI In Vivo Anticancer Drug Screen. Data for tumor model Sarcoma 180 (subcutaneous) in Swiss mice. Conditions: T/C endpoint: mean tumor weight, higher T/C = larger tumour; for T/C: evaluated on day 8. The method, boiled down:
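Antitumor activity is assessed in mice with transplantable tumors. Treated (T) and vehicle control (C) groups are compared on survival or tumor size.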

Setting [1] is: dose: 4.0 mg/kg/injection, schedule: Q01DX007 (ip), vehicle: carboxymethylcellulose (CMC).

The list does not hold the whole screen: it gathers tests that were run many times, whatever their T/C, doses with no T/C, and many T/C values between a quarter and a half above the control. Further doses and runs are listed elsewhere. T/C is the treated group as % of the vehicle group. Schedule codes are those of the source, taken here to give the interval after Q, in days (D) or hours (H), and the number of doses after X. Some entries were tested several times; the results are listed from low to high. Some schedule codes hold Z or #, which are not explained here. Some T/C values carry the count of animals alive at the toxicity check (mostly the fifth day); where none is given, no animal had died by that day. Some doses have a count of surviving animals in place of a T/C: the source files T/C as zero there, which appears to mark a toxic dose or a test without result, not a measured value. Counts of survivors are from the toxicity check (mostly the fifth day) where no day follows; animals may have died later.

With `CC(NC(=O)C1(N)CCCC1)C(=O)O` (stereo not drawn), the survivor count runs as follows: (dose: 50.0 mg/kg/injection, schedule: Q01DX007 (ip), vehicle: carboxymethylcellulose (CMC)) 2 of 6; (dose: 150.0 mg/kg/injection, schedule: Q01DX007 (ip), vehicle: carboxymethylcellulose (CMC)) 3 of 6; (dose: 500.0 mg/kg/injection, schedule: Q01DX007 (ip), vehicle: steroid suspending solution) 2 of 6; (dose: 750.0 mg/kg/injection, schedule: Q01DX007 (ip), vehicle: steroid suspending solution) 1 of 6.
Take `NN1CCCC1`: the survivor count by setting is: (dose: 113.0 mg/kg/injection, schedule: Q01DX007 (ip), vehicle: carboxymethylcellulose (CMC)) 0 of 6; (dose: 300.0 mg/kg/injection, schedule: Q01DX007 (ip), vehicle: saline) 2 of 6; (dose: 450.0 mg/kg/injection, schedule: Q01DX007 (ip), vehicle: saline) 0 of 6.
On to `C[C@H]1C[C@@H]2[C@H]([C@@H](O)C[C@@]3(C)[C@H]2CC[C@]3(O)C(=O)CO)[C@@]2(C)C=CC(=O)C=C12`, for which, where the note is “dose: 200.0 mg/kg/injection, schedule: Q01DX007 (sc), vehicle: water”, the survivor count was 4 of 7.
On to `Nc1n[se]nc1C(=O)O`, for which the survivor count under setting [1] is 0 of 6.
Consider `Clc1ccc2c(c1)C(Br)c1cc(Cl)cc(Cl)c1-2` (stereo not drawn), for which the survivor count (dose: 500.0 mg/kg/injection, schedule: Q01DX007 (ip), vehicle: saline) is listed as 1 of 6 and the survivor count (dose: 750.0 mg/kg/injection, schedule: Q01DX007 (ip), vehicle: saline) is given as 0 of 6.
As for `CCCCCCC(=O)NC1=C(N2CC2)C(=O)C(NC(=O)CCCCCC)=C(N2CC2)C1=O`, the survivor count reads like this: (dose: 62.5 mg/kg/injection, schedule: Q#A X014 (ip), vehicle: methylcellulose (MC)) 2 of 6 and 3 of 6; (dose: 93.75 mg/kg/injection, schedule: Q#A X014 (ip), vehicle: methylcellulose (MC)) 1 of 6.
For `CC(=O)OCC(=O)[C@@]1(O)CC[C@H]2[C@@H]3C[C@H](C)C4=CC(=O)C=C[C@]4(C)[C@H]3[C@@H](O)C[C@@]21C`, the survivor count (dose: 40.0 mg/kg/injection, schedule: Q01DX007 (sc), vehicle: steroid suspending solution) was 3 of 6 and the survivor count (dose: 150.0 mg/kg/injection, schedule: Q01DX007 (sc), vehicle: steroid suspending solution) is recorded as 2 of 6.
As to `O=C(Nc1ccc(C2=NCCCN2)cc1)c1ccc(C(=O)Nc2ccc(C3=NCCCN3)cc2)cc1`, the survivor count by setting is: (dose: 3.1 mg/kg/injection, schedule: Q01DX007 (ip), vehicle: water) 0 of 6; (dose: 4.0 mg/kg/injection, schedule: Q01DX007 (ip), vehicle: water) 1 of 6; (dose: 6.3 mg/kg/injection, schedule: Q01DX007 (ip), vehicle: water) 0 of 6; (dose: 8.0 mg/kg/injection, schedule: Q01DX007 (ip), vehicle: water) 1 of 6; (dose: 12.5 mg/kg/injection, schedule: Q01DX007 (ip), vehicle: water) 0 of 6; (dose: 16.0 mg/kg/injection, schedule: Q01DX007 (ip), vehicle: water) 0 of 6. For the same molecule, for the setting “dose: 25.0 mg/kg/injection, schedule: Q01DX007 (ip), vehicle: water”, the survivor count is 0 of 6. For the same molecule, under setting [1], the T/C was 149 % of control.
In the case of `CN(Cc1cnc2nc(N)nc(N)c2n1)c1ccc(C(=O)N[C@@H](CCC(=O)O)C(=O)O)cc1`, the T/C (dose: 0.95 mg/kg/injection, schedule: Q01DX007 (ip), vehicle: carboxymethylcellulose (CMC)) is 149 % of control and the T/C (dose: 1.0 mg/kg/injection, schedule: Q01DX007 (ip), vehicle: carboxymethylcellulose (CMC)) was 143 % of control. For the same molecule, the survivor count is 3 of 6 (dose: 1.0 mg/kg/injection, schedule: Q01DX007 (ip), vehicle: water) and 2 of 6 (dose: 2.0 mg/kg/injection, schedule: Q01DX007 (ip), vehicle: water).
`CSc1nc(C)c(Br)c(Sc2nc(N)nc3nc[nH]c23)n1`: the survivor count reads like this: (dose: 24.0 mg/kg/injection, schedule: Q01DX007 (ip), vehicle: carboxymethylcellulose (CMC)) 3 of 6; (dose: 55.0 mg/kg/injection, schedule: Q01DX007 (ip), vehicle: carboxymethylcellulose (CMC)) 2 of 6.
Consider `CC(=O)OCC(=O)[C@@]1(O)CC[C@H]2[C@@H]3C[C@H](F)C4=CC(=O)CC[C@]4(C)[C@H]3C(=O)C[C@@]21C`, for which the survivor count is, setting by setting: (dose: 44.0 mg/kg/injection, schedule: Q01DX007 (sc), vehicle: steroid suspending solution) 3 of 6; (dose: 66.0 mg/kg/injection, schedule: Q01DX007 (sc), vehicle: steroid suspending solution) 1 of 6.
In the case of `C[C@@H]1C[C@H]2CC[C@H](O2)[C@H](C)C(=O)O[C@@H](C)C[C@@H]2CC[C@@H](O2)[C@@H](C)C(=O)O[C@H](C)C[C@H]2CC[C@H](O2)[C@H](C)C(=O)O[C@@H](C)C[C@@H]2CC[C@@H](O2)[C@@H](C)C(=O)O1`, the survivor count runs as follows: (dose: 15.0 mg/kg/injection, schedule: Q#A X014 (ip), vehicle: olive oil, sesame oil, peanut oil) 3 of 6; (dose: 45.0 mg/kg/injection, schedule: Q#A X014 (ip), vehicle: carboxymethylcellulose (CMC)) 3 of 6; (dose: 75.0 mg/kg/injection, schedule: Q#A X014 (sc), vehicle: olive oil, sesame oil, peanut oil) 3 of 6. Besides, for the setting “dose: 36.0 mg/kg/injection, schedule: Q01DX007 (sc), vehicle: methylcellulose (MC)”, the T/C is 129 % of control.
`C#C[C@]1(O)CC[C@H]2[C@@H]3CCc4cc(O)ccc4[C@H]3CC[C@@]21C`: the survivor count (dose: 281.25 mg/kg/injection, schedule: Q#A X014 (sc), vehicle: steroid suspending solution) is listed as 3 of 7.
For `Cc1cc2c(c3oc(C4(C)OC4C4OC4C)cc(=O)c13)C(=O)c1c(O)c(C3CC(C)(N(C)C)C(O)C(C)O3)cc(C3CC(N(C)C)C(O)C(C)O3)c1C2=O` (stereo not drawn), the survivor count reads like this: (dose: 0.2 mg/kg/injection, schedule: Q01DX007 (sc), vehicle: other) 3 of 6; (dose: 0.4 mg/kg/injection, schedule: Q01DX007 (sc), vehicle: other) 0 of 6.
As to `O=NN1CCN(N=O)CC1`, the T/C (dose: 10.12 mg/kg/injection, schedule: Q#A X014 (ip), vehicle: carboxymethylcellulose (CMC)) is 129 % of control.
Regarding `CC(=O)C1(/C(C)=C/C2C(C=O)=CC(C)(C)C2O)CC1` (stereo not drawn), the T/C by setting is: (dose: 4.0 mg/kg/injection, schedule: Q01DX007 (ip), vehicle: saline) 129 % of control; (dose: 32.0 mg/kg/injection, schedule: Q01DX007 (ip), vehicle: saline) 139 % of control.
Regarding `N=C(c1nsnc1N)N1CCCC1`, the survivor count (dose: 375.0 mg/kg/injection, schedule: Q01DX007 (ip), vehicle: saline) is 0 of 6.
In the case of `CCCS/C(N)=N/N=C/c1ccc([N+](=O)[O-])o1`, the survivor count is listed as 3 of 7 (dose: 40.0 mg/kg/injection, schedule: Q01DX007 (ip), vehicle: other); 4 of 7 (dose: 60.0 mg/kg/injection, schedule: Q01DX007 (ip), vehicle: other); 0 of 7 (dose: 90.0 mg/kg/injection, schedule: Q01DX007 (ip), vehicle: other); 1 of 6 (dose: 90.0 mg/kg/injection, schedule: Q01DX007 (ip), vehicle: water).
Take `CCCCNc1ncnc2c1cnn2C`: the T/C (dose: 2.0 mg/kg/injection, schedule: Q01DX007 (ip), vehicle: carboxymethylcellulose (CMC)) is 135 % of control [5 of 6 alive]. Further, the survivor count runs as follows: (dose: 62.5 mg/kg/injection, schedule: Q01DX007 (ip), vehicle: carboxymethylcellulose (CMC)) 1 of 6; (dose: 125.0 mg/kg/injection, schedule: Q01DX007 (ip), vehicle: carboxymethylcellulose (CMC)) 3 of 6.
For `CCOC(=O)CCCc1ccc(N/N=N/c2nc[nH]c2C(N)=O)cc1`, the survivor count (dose: 187.0 mg/kg/injection, schedule: Q01DX007 (ip), vehicle: carboxymethylcellulose (CMC)) is given as 2 of 6 and the survivor count (dose: 250.0 mg/kg/injection, schedule: Q01DX007 (ip), vehicle: carboxymethylcellulose (CMC)) is given as 0 of 6.
Consider `O=c1[nH]cc(F)c(=O)[nH]1`, for which the T/C (dose: 19.0 mg/kg/injection, schedule: Q01DX007 (ip), vehicle: carboxymethylcellulose (CMC)) was 66, 67, 70, 82 % of control and the T/C (dose: 38.0 mg/kg/injection, schedule: Q01DX007 (ip), vehicle: carboxymethylcellulose (CMC)) was 1 [8 of 10 alive], 16 [9 of 10 alive], 29, 64 % of control.
